No constants are given. Whether binding was seen depends on the method and setting. Binding seen in cells or lysates may run through a third protein. Some binding calls cover weakened binding; strength is not graded here.
Key:
[1] = target: RUVBL1 in MDA-MB-231-RR cells (human (endogenous in MDA-MB-231-RR)) (UniProt Q9Y265); experiment: co-IP; MDA-MB-231-RR cells transfected with shDTL (IR for 4 h before collection) or with Flag-DTL, HA-Ub, HA-Ub K63 or HA-Ub K63R; lysate incubated with RUVBL1 antibody, western blot
Myc-RUVBL1 = Myc-RUVBL1 (UniProt Q9Y265); experiment: co-IP; HEK293T cells transfected with Myc-RUVBL1 (in some panels also DTL, HA-Ub, HA-Ub K63 or HA-Ub K63R; in Fig. 6D-F and 7E IR for 4 h before collection); lysate incubated with Myc antibody, western blot
[2] = target: RUVBL1 in MDA-MB-231-RUVBL1 cells (stably expressed Myc-RUVBL1) (UniProt Q9Y265); experiment: co-IP; MDA-MB-231-RUVBL1 cell lysate, IP with RUVBL1 antibody, western blot; Fig. 6C after 4 h of IR, compared with IgG

Amino acid sequences for entries named in this document (tags omitted).
UniProt Q9Y265: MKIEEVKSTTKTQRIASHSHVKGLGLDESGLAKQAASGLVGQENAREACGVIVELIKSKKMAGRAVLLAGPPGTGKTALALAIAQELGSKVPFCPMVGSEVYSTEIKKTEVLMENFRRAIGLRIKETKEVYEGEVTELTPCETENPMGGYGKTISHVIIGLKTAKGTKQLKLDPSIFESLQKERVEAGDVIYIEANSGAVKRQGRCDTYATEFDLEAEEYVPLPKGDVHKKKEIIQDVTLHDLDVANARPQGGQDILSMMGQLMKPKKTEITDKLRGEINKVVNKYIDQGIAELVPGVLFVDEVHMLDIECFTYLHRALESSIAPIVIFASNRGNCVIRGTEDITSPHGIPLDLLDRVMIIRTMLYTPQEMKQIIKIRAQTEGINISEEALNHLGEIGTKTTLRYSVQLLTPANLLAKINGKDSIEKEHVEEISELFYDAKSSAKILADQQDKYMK
UniProt P35222: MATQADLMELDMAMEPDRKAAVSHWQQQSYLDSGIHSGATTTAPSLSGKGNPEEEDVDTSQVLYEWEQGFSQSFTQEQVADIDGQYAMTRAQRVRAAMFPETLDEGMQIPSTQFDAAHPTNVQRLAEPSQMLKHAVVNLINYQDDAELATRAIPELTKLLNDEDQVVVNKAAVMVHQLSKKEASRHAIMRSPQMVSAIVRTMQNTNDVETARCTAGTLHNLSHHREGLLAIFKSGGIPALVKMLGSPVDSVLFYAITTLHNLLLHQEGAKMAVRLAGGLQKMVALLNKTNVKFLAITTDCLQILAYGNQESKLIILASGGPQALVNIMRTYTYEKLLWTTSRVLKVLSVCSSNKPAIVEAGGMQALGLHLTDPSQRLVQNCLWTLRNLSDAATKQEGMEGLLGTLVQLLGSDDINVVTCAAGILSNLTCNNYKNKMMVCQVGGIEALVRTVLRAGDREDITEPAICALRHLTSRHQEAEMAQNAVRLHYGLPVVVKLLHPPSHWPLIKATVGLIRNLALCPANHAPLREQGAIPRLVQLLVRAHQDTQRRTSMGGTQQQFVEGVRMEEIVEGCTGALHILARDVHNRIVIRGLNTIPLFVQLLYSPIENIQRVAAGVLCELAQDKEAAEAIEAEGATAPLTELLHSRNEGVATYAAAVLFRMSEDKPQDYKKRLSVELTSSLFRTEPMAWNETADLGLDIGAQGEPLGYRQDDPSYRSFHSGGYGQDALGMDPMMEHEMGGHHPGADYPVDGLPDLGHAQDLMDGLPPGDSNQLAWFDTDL
UniProt P40763: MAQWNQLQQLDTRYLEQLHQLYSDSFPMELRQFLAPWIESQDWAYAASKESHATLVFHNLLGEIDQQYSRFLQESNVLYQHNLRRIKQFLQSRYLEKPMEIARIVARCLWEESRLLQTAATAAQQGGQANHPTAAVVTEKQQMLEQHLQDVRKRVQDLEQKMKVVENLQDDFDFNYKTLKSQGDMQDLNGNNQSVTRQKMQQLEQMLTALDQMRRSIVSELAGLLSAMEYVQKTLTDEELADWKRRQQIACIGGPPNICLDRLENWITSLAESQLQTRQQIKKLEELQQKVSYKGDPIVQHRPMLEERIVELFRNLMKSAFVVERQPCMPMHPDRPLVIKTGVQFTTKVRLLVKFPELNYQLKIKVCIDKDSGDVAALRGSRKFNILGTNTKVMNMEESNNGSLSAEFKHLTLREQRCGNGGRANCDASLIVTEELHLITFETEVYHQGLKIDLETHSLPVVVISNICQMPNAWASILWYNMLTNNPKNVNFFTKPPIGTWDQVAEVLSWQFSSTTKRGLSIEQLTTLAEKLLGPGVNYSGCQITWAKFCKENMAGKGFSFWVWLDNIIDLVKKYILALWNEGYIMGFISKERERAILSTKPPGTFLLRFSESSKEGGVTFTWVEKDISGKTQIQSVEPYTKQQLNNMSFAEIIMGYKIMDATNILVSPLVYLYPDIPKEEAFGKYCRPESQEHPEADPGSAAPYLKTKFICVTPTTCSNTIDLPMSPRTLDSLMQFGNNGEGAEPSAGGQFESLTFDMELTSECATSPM
UniProt P01106: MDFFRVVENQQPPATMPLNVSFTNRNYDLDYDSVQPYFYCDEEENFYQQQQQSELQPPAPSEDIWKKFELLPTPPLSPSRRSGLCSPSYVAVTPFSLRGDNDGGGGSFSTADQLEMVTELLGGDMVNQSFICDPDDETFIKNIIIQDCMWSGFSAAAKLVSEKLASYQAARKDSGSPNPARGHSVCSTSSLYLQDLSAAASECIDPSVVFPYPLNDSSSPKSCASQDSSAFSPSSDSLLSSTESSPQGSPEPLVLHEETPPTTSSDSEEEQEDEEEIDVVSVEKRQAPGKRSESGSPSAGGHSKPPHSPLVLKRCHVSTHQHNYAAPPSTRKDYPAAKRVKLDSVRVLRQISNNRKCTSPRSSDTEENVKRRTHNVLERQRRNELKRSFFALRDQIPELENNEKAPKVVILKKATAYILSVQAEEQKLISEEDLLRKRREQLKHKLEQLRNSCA
UniProt Q92993: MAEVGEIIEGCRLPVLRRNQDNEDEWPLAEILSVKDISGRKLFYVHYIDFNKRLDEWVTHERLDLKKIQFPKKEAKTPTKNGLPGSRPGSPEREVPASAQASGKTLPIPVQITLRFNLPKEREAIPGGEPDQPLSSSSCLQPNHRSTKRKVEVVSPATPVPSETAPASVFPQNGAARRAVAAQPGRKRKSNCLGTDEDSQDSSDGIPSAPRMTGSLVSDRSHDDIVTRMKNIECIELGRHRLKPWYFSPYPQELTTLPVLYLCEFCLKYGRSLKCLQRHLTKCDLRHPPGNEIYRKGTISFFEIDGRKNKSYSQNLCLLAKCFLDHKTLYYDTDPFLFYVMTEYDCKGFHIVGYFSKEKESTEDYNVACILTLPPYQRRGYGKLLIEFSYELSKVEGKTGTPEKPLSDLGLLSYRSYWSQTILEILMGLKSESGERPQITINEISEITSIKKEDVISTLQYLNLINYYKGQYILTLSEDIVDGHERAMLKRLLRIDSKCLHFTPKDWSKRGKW
UniProt Q9NZJ0: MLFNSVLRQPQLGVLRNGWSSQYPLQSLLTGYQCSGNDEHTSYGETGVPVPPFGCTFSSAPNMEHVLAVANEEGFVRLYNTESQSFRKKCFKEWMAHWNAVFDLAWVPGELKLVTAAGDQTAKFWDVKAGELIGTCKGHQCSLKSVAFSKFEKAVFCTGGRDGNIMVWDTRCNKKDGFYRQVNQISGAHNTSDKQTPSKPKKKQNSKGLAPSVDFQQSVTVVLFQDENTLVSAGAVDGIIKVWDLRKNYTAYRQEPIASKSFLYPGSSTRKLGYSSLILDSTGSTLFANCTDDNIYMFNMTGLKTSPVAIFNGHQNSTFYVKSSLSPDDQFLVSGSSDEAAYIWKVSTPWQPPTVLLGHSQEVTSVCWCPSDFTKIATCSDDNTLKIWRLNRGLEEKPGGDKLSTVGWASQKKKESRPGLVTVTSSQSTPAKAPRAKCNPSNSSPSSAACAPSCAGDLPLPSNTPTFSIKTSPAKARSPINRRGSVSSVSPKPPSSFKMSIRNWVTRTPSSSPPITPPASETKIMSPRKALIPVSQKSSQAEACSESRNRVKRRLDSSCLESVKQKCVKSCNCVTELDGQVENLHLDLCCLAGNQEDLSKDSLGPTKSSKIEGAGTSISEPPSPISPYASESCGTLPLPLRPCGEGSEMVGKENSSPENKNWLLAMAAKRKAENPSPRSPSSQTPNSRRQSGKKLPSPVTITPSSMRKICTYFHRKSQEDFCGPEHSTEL

Substance	binding [1]	binding (Myc-RUVBL1)	binding [2]
β-catenin (from UniProt P35222 1-781)	binds	binds	–
STAT3 (from UniProt P40763 1-770)	–	binds	–
c-Myc (from UniProt P01106 1-454)	–	binds	–
Tat-interacting protein 60 (TIP60) (from UniProt Q92993 1-513)	binds	binds	–
DTL (from UniProt Q9NZJ0 1-730)	–	binds	binds

From article PMC11015013
